PubChem BioAssay AID493246, Drosophila RNAi Screening Center | 2011
The screen tested about 21,000 reagents; below is an unselected part of those with a known target gene and a result. Of all reagents, 429 (2%) were called active. 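Values are raw and not normalised between plates; calls rest on per-plate z-scores that were not deposited.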 A plus sign joins genes that one reagent is predicted to hit. Not given: the amount of reagent, the time to read-out.

Test: 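Identify essential fly genes by loss of cell viability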 (primary screen)
Cells: Drosophila Kc and S2R+ cells
Knock-down reagent: long dsRNA against Drosophila genes
Measured: 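Raw, unnormalised count of remaining cells in each well; per-plate z-scores of cell number underlie the calls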
Reading the numbers: Kc cell number and S2R+ cell number: higher = more cells remaining
Rule for the call: 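Counted as a hit if cell number falls by a z-score of at least 3 within its plate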

no.	Target gene	DRSC id	Kc cell number, rep 1	Kc cell number, rep 2	S2R+ cell number, rep 1	S2R+ cell number, rep 2	call
1	gbb	DRSC04687	1.59e6	1.66e6	1.26e6	1.41e6	inactive
2	CG32856	DRSC13124	1.37e6	1.54e6	1.05e6	1.19e6	inactive
3	didum	DRSC07603	1.64e6	1.63e6	1.35e6	1.44e6	inactive
4	Usp39	DRSC20032	1.64e6	1.73e6	1.11e6	1.21e6	inactive
5	CG3402	DRSC08567	1.30e6	1.48e6	1.05e6	1.25e6	inactive
6	hoe1	DRSC00265	1.24e6	1.42e6	4.71e5	6.08e5	inactive
7	hoe1	DRSC00333	1.55e6	1.45e6	1.18e6	1.33e6	inactive
8	hoe1	DRSC00353	1.47e6	1.39e6	1.10e6	1.22e6	inactive
9	Cyp9b1	DRSC07389	1.49e6	1.54e6	1.21e6	1.30e6	inactive
10	Cdc6	DRSC10563	1.22e6	1.31e6	1.11e6	1.07e6	inactive
11	Amy-d	DRSC05919	1.48e6	1.59e6	1.14e6	1.25e6	inactive
12	CG34049	DRSC00104	1.59e6	1.64e6	1.05e6	1.19e6	inactive
13	RpL28 + snoRNA:Or-CD12	DRSC08293	1.15e6	1.08e6	6.19e5	7.59e5	active
14	Myc	DRSC18762	8.23e5	8.98e5	4.24e5	5.97e5	active
15	vnc + CG42455	DRSC09867	1.12e6	1.37e6	1.17e6	8.76e5	inactive
16	Gk2	DRSC08610	1.46e6	1.44e6	1.12e6	1.11e6	inactive
17	Cyp309a1	DRSC00747	1.64e6	1.71e6	1.10e6	1.23e6	inactive
18	CG17717	DRSC18130	1.51e6	1.49e6	1.02e6	1.11e6	inactive
19	Golgin97	DRSC06895	1.36e6	1.51e6	1.02e6	8.62e5	inactive
20	CG4806	DRSC04491	1.61e6	1.75e6	1.18e6	1.42e6	inactive
21	spict	DRSC02157	1.43e6	1.50e6	1.00e6	1.11e6	inactive
22	eIF2beta	DRSC11341	9.70e5	1.06e6	8.71e5	1.04e6	inactive
23	CG11069	DRSC14289	1.50e6	1.61e6	1.20e6	1.27e6	inactive
24	CG5199	DRSC11770	1.67e6	1.87e6	1.49e6	1.53e6	inactive
25	Edc3	DRSC10620	1.38e6	1.41e6	1.24e6	1.27e6	inactive
26	CG4502	DRSC02755	1.16e6	1.24e6	4.21e5	6.15e5	inactive
27	CG13743	DRSC05139	1.27e6	1.46e6	1.12e6	1.19e6	inactive
28	CG13743	DRSC06414	1.48e6	1.59e6	1.01e6	1.08e6	inactive
29	CtsL3	DRSC12171	1.55e6	1.59e6	1.25e6	1.32e6	inactive
30	RpL24-like	DRSC16111	1.61e6	1.56e6	1.02e6	1.08e6	inactive
31	cmb	DRSC09790	1.31e6	1.35e6	1.36e6	1.46e6	inactive
32	CG12483	DRSC08278	1.31e6	1.38e6	9.91e5	1.37e6	inactive
33	CG3342	DRSC18304	5.81e5		9.10e5		inactive

A run of entries of the results above, for reference:
no.	Target gene	DRSC id	Kc cell number, rep 1	Kc cell number, rep 2	S2R+ cell number, rep 1	S2R+ cell number, rep 2	call
4	Usp39	DRSC20032	1.64e6	1.73e6	1.11e6	1.21e6	inactive
5	CG3402	DRSC08567	1.30e6	1.48e6	1.05e6	1.25e6	inactive
6	hoe1	DRSC00265	1.24e6	1.42e6	4.71e5	6.08e5	inactive
7	hoe1	DRSC00333	1.55e6	1.45e6	1.18e6	1.33e6	inactive
8	hoe1	DRSC00353	1.47e6	1.39e6	1.10e6	1.22e6	inactive
9	Cyp9b1	DRSC07389	1.49e6	1.54e6	1.21e6	1.30e6	inactive
10	Cdc6	DRSC10563	1.22e6	1.31e6	1.11e6	1.07e6	inactive

The list goes on.
no.	Target gene	DRSC id	Kc cell number, rep 1	Kc cell number, rep 2	S2R+ cell number, rep 1	S2R+ cell number, rep 2	call
34	ATP7	DRSC19819	1.59e6	1.53e6	1.03e6	1.15e6	inactive
35	scro	DRSC17099	1.47e6	1.60e6	1.01e6	1.11e6	inactive
36	scro	DRSC17102	1.72e6	1.82e6	1.01e6	1.21e6	inactive
37	CG30383	DRSC05062	1.37e6	1.43e6	9.53e5	1.06e6	inactive
38	CG7406	DRSC20042	1.69e6	1.65e6	1.07e6	1.24e6	inactive
39	Git	DRSC06620	1.35e6	1.40e6	1.14e6	1.20e6	inactive
40	CG15344 (retired record)	DRSC18029	1.47e6	1.48e6	1.02e6	1.16e6	inactive
41	CG4213	DRSC00641	1.64e6	1.61e6	1.16e6	1.34e6	inactive
42	okr	DRSC00834	1.29e6	1.30e6	9.05e5	9.91e5	inactive
43	CG8230	DRSC05931	1.49e6	1.56e6	1.14e6	1.26e6	inactive
44	RfC4	DRSC08691	1.45e6	1.50e6	1.22e6	1.18e6	inactive
45	CG15601	DRSC19670	1.43e6	1.47e6	1.06e6	1.09e6	inactive
46	Doc1	DRSC11146	1.44e6	1.48e6	1.29e6	1.33e6	inactive
47	CG10581	DRSC11623	1.66e6	1.69e6	1.38e6	1.51e6	inactive
48	Mst98Ca	DRSC16749	6.15e5		9.61e5		inactive
49	CG14572	DRSC11733	1.37e6	1.50e6	1.26e6	1.33e6	inactive
50	mth	DRSC08725	1.49e6	1.56e6	1.36e6	1.40e6	inactive
51	Tctp	DRSC15649	1.67e6	1.69e6	1.14e6	1.24e6	inactive
52	ATP8A	DRSC05421	1.42e6	1.41e6	9.84e5	1.14e6	inactive
53	ATP8A	DRSC06643	1.30e6	1.43e6	1.06e6	9.92e5	inactive
54	ATP8A	DRSC06644	1.47e6	1.49e6	1.21e6	1.38e6	inactive
55	CG15642	DRSC19678	1.53e6	1.49e6	1.06e6	1.09e6	inactive
56	CG11475	DRSC04113	1.31e6	1.38e6	1.01e6	1.03e6	inactive
57	Dsk	DRSC12347	1.36e6	1.38e6	1.30e6	1.37e6	inactive
58	CG7222	DRSC07019	1.46e6	1.44e6	1.20e6	1.28e6	inactive
59	mud	DRSC19019	1.47e6	1.49e6	1.11e6	1.24e6	inactive
